Laboratory results as given in publication PMC12607858, “GNAT family Pat2 is required for long-term survival on glycerol and catalyzes lysine acetylation of glycerol kinase in hypersaline-adapted archaea” (mBio, 2025).
No constants are given. Whether binding was seen depends on the method and setting. Tags and fused reporters may be left off the sequences shown.

Target: HvPat2-SII (Haloferax volcanii Pat2, HVO_1821, with a C-terminal StrepII tag) (Haloferax volcanii) (UniProt D4GSS9)
Experiment: SEC; Superdex 75 Increase 10/300 GL, 50 mM HEPES pH 7.5, 2 M NaCl, 1 mM DTT, 0.3 mL/min, after StrepTactin purification; both purified

- binding: no binding
B1: HvPat2-SII (Haloferax volcanii Pat2, HVO_1821, with a C-terminal StrepII tag) (enzyme, UniProt D4GSS9 1-184)
chain: MSDRTFSDAVADPYDAPPLSFTDGEDRTIEVRAHDGSDEELEALVEMYDAFDPSDRAQGIPPGREDRIRDWLENILDEDCLNVIAWDGDEVAGHATLVPDGDAYELAIFVHQTYQRAGIGTRLIKALLGYGRVSGVEKVWLTVERWNRAAVGLYQTVGFETSDAESFELEMTIRLAEPPDDEGG
